The same purity stands for every peptide and may come from a single statement. [ ]: non-standard residue; d: D form. The star is where a group is joined. dPhe(4-NO2) = N[C@H](Cc1ccc([N+](=O)[O-])cc1)C(=O)O; dPhe(3-CF3) = N[C@H](Cc1cccc(C(F)(F)F)c1)C(=O)O; dPhe(4-CF3) = N[C@H](Cc1ccc(C(F)(F)F)cc1)C(=O)O; dPhe(2-CF3) = N[C@H](Cc1ccccc1C(F)(F)F)C(=O)O; dPhe(4-NH2) = Nc1ccc(C[C@@H](N)C(=O)O)cc1; dPhe(3-Cl) = N[C@H](Cc1cccc(Cl)c1)C(=O)O; dPhe(4-Br) = N[C@H](Cc1ccc(Br)cc1)C(=O)O; dPhe(4-Cl) = N[C@H](Cc1ccc(Cl)cc1)C(=O)O; Phe(3-F) = N[C@@H](Cc1cccc(F)c1)C(=O)O; Phe(4-F) = N[C@@H](Cc1ccc(F)cc1)C(=O)O; dPhe(2-Br) = N[C@H](Cc1ccccc1Br)C(=O)O; dPhe(2-Cl) = N[C@H](Cc1ccccc1Cl)C(=O)O; dPhe(3-F) = N[C@H](Cc1cccc(F)c1)C(=O)O; dPhe(4-F) = N[C@H](Cc1ccc(F)cc1)C(=O)O; dPhe(4-I) = N[C@H](Cc1ccc(I)cc1)C(=O)O; dPhe(2-F) = N[C@H](Cc1ccccc1F)C(=O)O; Cha = N[C@@H](CC1CCCCC1)C(=O)O; dCha = N[C@H](CC1CCCCC1)C(=O)O; tBu = CC(C)(C)*
test: general procedure: Fmoc solid-phase peptide synthesis; 2-chlorotrityl chloride resin; PyBOP/HOBt/DIEA; conditions: whole synthesis, UPLC, Waters Acquity BEH C18, two solvent systems (MeCN/0.1% TFA and MeOH/0.1% TFA)

Final HPLC purity, >99%:
cyclo(F[dP]F[dCha]), cyclo(F[dP]F[dL]), cyclo(F[dP]F[dPhe(2-Br)]), cyclo(F[dP]F[dPhe(2-CF3)]), cyclo(F[dP]F[dPhe(2-Cl)]), cyclo(F[dP]F[dPhe(2-F)]), cyclo(F[dP]F[dPhe(3-CF3)]), cyclo(F[dP]F[dPhe(3-Cl)]), cyclo(F[dP]F[dPhe(3-F)]), cyclo(F[dP]F[dPhe(4-Br)]), cyclo(F[dP]F[dPhe(4-CF3)]), cyclo(F[dP]F[dPhe(4-Cl)]), cyclo(F[dP]F[dPhe(4-F)]), cyclo(F[dP]F[dPhe(4-I)]), cyclo(F[dP]F[dPhe(4-NH2)]), cyclo(F[dP]F[dPhe(4-NO2)]), cyclo(F[dP]F[dQ]), cyclo(F[dP]Y(tBu)[dW]), cyclo(F[dP]Y[dF]), cyclo(F[dP]Y[dW]), cyclo(F[dP][Cha][dF]), cyclo(F[dP][Cha][dW]), cyclo(F[dP][Phe(3-F)][dF]), cyclo(F[dP][Phe(3-F)][dW]), cyclo(F[dP][Phe(4-F)][dF]), cyclo(F[dP][Phe(4-F)][dW]), cyclo[3′-Pal-D-Pro-Phe-D-Cha], cyclo[3′-Pal-D-Pro-Phe-D-Phe(2-Cl)], cyclo[3′-Pal-D-Pro-Phe-D-Phe(2-F)], cyclo[3′-Pal-D-Pro-Phe-D-Phe(3-Cl)], cyclo[3′-Pal-D-Pro-Phe-D-Phe(3-F)], cyclo[3′-Pal-D-Pro-Phe-D-Phe(4-Cl)], cyclo[3′-Pal-D-Pro-Phe-D-Phe(4-F)], cyclo[Phe(4-NH2CH2)-D-Pro-Phe-D-Trp], cyclo[Phe-D-Pro-Phe(2-NH2CO)-D-Trp], cyclo[Phe-D-Pro-Phe(3-NH2CO)-D-Trp], cyclo[Phe-D-Pro-Phe(4-MeO)-D-Phe], cyclo[Phe-D-Pro-Phe(4-MeO)-D-Trp], cyclo[Phe-D-Pro-Phe(4-NH2CH2)-D-Phe], cyclo[Phe-D-Pro-Phe(4-NH2CH2)-D-Trp], cyclo[Phe-D-Pro-Phe(4-NH2CO)-D-Trp], cyclo[Phe-D-Pro-Phe-D-Phe(2,4,5-tri-F)], cyclo[Phe-D-Pro-Phe-D-Phe(2,4-di-Cl)], cyclo[Phe-D-Pro-Phe-D-Phe(2-CH3)], cyclo[Phe-D-Pro-Phe-D-Phe(2-NH2CH2)], cyclo[Phe-D-Pro-Phe-D-Phe(2-NH2CO)], cyclo[Phe-D-Pro-Phe-D-Phe(3,4,5-tri-F)], cyclo[Phe-D-Pro-Phe-D-Phe(3,4-di-Cl)], cyclo[Phe-D-Pro-Phe-D-Phe(3,4-di-F)], cyclo[Phe-D-Pro-Phe-D-Phe(3,5-di-F)], cyclo[Phe-D-Pro-Phe-D-Phe(3-CH3)], cyclo[Phe-D-Pro-Phe-D-Phe(3-NH2CO)], cyclo[Phe-D-Pro-Phe-D-Phe(4-CH3)], cyclo[Phe-D-Pro-Phe-D-Phe(4-MeO)], cyclo[Phe-D-Pro-Phe-D-Phe(4-NH2CH2)], cyclo[Phe-D-Pro-Phe-D-Phe(4-NH2CO)], cyclo[Phe-D-Pro-Phe-D-Phe(penta-F)], cyclo[Phe-D-Pro-Phe-D-Trp(N-CHO)], cyclo[Phe-D-Pro-Phe-D-Trp(N-Me)]
